Measurements reported in PubChem BioAssay AID504764 (Drosophila RNAi Screening Center, 2011).
The screen tested about 22,000 reagents; shown is an unselected part of those that have a named target and a result. In the full data, 403 (1.9%) got an active call. 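Unnormalised raw counts per well; ratio z-scores behind the hit calls and whether each hit raises or lowers signal are not deposited.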 Names joined by + are all predicted targets of the reagent. No sequences are given here. The record does not give: the amount of reagent.

- Screen: 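Genes whose knock-down alters Notch-dependent transcription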 (primary screen)
- Cell system: Drosophila Kc167 cells
- Reagent: long dsRNA against Drosophila genes
- Timing: about 5 days (4 days dsRNA, then 24 h after transfection)
- Conditions: transfection of constitutively active membrane-tethered Notch lacking the extracellular domain, read 24 h later
- Measured: 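Firefly luciferase from an E(spl)m3 reporter with active Notch, plus control-promoter and uninduced reporter wells for normalisation; unnormalised counts, duplicate wells a and b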
- Direction: induced reporter light, run 1, well a and induced reporter light, run 1, well b: higher = more light from the Notch target reporter with active Notch; control promoter light, run 1, well a and control promoter light, run 1, well b: higher = more light from the viral control promoter (cell number, transfection, viability); uninduced reporter light, run 1, well a: higher = more light from the Notch target reporter without active Notch
- Hit rule: 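Wells with low control signal or poorly matching duplicates excluded; duplicates averaged; per source plate, z beyond ±2 for induced/control log2 ratio or beyond ±1.8 for induced/uninduced marks a hit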
- Calls: active = modifier hit (raised or lowered Notch signal); inactive = not a hit

Gene | dsRNA | induced reporter light, run 1, well a | induced reporter light, run 1, well b | control promoter light, run 1, well a | control promoter light, run 1, well b | uninduced reporter light, run 1, well a | call
Sas-4 (Spindle assembly abnormal 4) | DRSC12505 | 1.05e5 | 1.22e5 | 1.11e5 | 94120 | 7838 | inactive
CG14024 | DRSC00868 | 1.63e5 | 1.62e5 | 2.00e5 | 2.20e5 | 11785 | inactive
CG14024 | DRSC02354 | 1.31e5 | 1.36e5 | 1.67e5 | 1.61e5 | 12940 | inactive
robo3 (roundabout 3) | DRSC00374 | 1.19e5 | 98205 | 1.32e5 | 70165 | 10540 | inactive
robo3 (roundabout 3) | DRSC00375 | 37760 | 41920 | 25305 | 14385 | 6740 | inactive
robo3 (roundabout 3) | DRSC00684 | 1.07e5 | 1.08e5 | 95190 | 50040 | 10575 | inactive
Ssu72 (Ssu72 CTD phosphatase) | DRSC19572 | 1.06e5 | 90635 | 1.15e5 | 1.16e5 | 10305 | inactive
PIG-Q (Phosphatidylinositol glycan anchor biosynthesis class Q) | DRSC19138 | 1.09e5 | 89285 | 96795 | 89955 | 9120 | inactive
Cyp313a3 (Cytochrome P450 313a3) | DRSC16626 | 84200 | 79070 | 84725 | 58345 | 5730 | inactive
CG9270 | DRSC03182 | 2.29e5 | 2.01e5 | 1.36e5 | 1.37e5 | 12805 | inactive
CG15741 | DRSC19707 | 1.05e5 | 1.17e5 | 2.42e5 | 2.43e5 | 8865 | inactive
jus (julius seizure) | DRSC14861 | 13220 | 8310 | 15485 | 13070 | 3225 | inactive
jus (julius seizure) | DRSC14862 | 1.17e5 | 1.16e5 | 1.21e5 | 1.14e5 | 8225 | inactive
Obp83cd (Odorant-binding protein 83cd) | DRSC12267 | 83590 | 80385 | 57930 | 57890 | 7435 | inactive
CG5181 | DRSC02825 | 1.25e5 | 1.43e5 | 1.80e5 | 1.74e5 | 13285 | inactive
Sfp53D (Seminal fluid protein 53D) | DRSC05625 | 80230 | 85620 | 1.04e5 | 74290 | 6055 | inactive
BORCS5 (BLOC-1 related complex subunit 5) | DRSC19427 | 1.58e5 | 1.72e5 | 2.58e5 | 1.87e5 | 12595 | inactive
Cyp4ac2 (Cytochrome P450 4ac2) | DRSC03303 | 1.76e5 | 1.71e5 | 1.87e5 | 1.81e5 | 12060 | inactive
Sin3A | DRSC07552 | 1.64e5 | 1.70e5 | 1.17e5 | 1.10e5 | 6178 | active
CG42820 + CG42819 | DRSC02264 | 1.64e5 | 2.09e5 | 1.33e5 | 1.46e5 | 24715 | inactive
CG42820 + CG42819 | DRSC02265 | 1.54e5 | 1.89e5 | 94035 | 1.13e5 | 16835 | inactive
CG1161 | DRSC12180 | 22475 | 28505 | 10180 | 8700 | 2750 | inactive
CG16789 | DRSC15155 | 1.05e5 | 94840 | 86635 | 58900 | 5635 | inactive
LysS (Lysozyme S) | DRSC08677 | 1.22e5 | 1.39e5 | 1.64e5 | 1.96e5 | 5195 | inactive
CG15226 (retired record) | DRSC03829 | 1.04e5 | 87640 | 94270 | 1.28e5 | 9965 | inactive
CG15226 (retired record) | DRSC04233 | 78390 | 64210 | 67075 | 73520 | 4040 | inactive
Npc2h (Niemann-Pick type C-2h) | DRSC14297 | 1.31e5 | 1.09e5 | 1.69e5 | 1.74e5 | 10032 | inactive
CG13127 | DRSC02223 | 98410 | 1.06e5 | 71210 | 88175 | 16415 | inactive
CG31769 | DRSC01361 | 1.29e5 | 91080 | 1.24e5 | 94210 | 11270 | inactive
Obp99c (Odorant-binding protein 99c) | DRSC16262 | 1.39e5 | 1.47e5 | 2.19e5 | 1.86e5 | 13855 | inactive
Est-Q (Esterase Q) | DRSC11835 | 97600 | 1.52e5 | 66425 | 92950 | 9292 | inactive
CG34163 | DRSC01219 | 1.44e5 | 1.35e5 | 1.55e5 | 1.46e5 | 9925 | inactive
Oatp58Dc (Organic anion transporting polypeptide 58Dc) | DRSC04363 | 1.39e5 | 1.70e5 | 1.32e5 | 1.32e5 | 9710 | inactive
CG9072 | DRSC20147 | 89855 | 78930 | 97535 | 76100 | 12970 | inactive
fd96Cb (forkhead domain 96Cb) | DRSC16947 | 1.41e5 | 1.61e5 | 1.97e5 | 1.93e5 | 12675 | inactive
Psf3 (Partner of Sld Five 3) | DRSC18216 | 1.18e5 | 1.31e5 | 1.30e5 | 1.64e5 | 8470 | inactive
CG13784 | DRSC00974 | 1.71e5 | 1.83e5 | 2.34e5 | 2.20e5 | 13500 | inactive
CG13784 | DRSC02287 | 73140 | 96770 | 39615 | 34015 | 14365 | inactive
twe (twine) | DRSC03628 | 1.60e5 | 1.61e5 | 1.67e5 | 1.57e5 | 14195 | inactive
CG1603 | DRSC06602 | 1.76e5 | 1.56e5 | 1.57e5 | 1.73e5 | 12720 | inactive
CG7460 | DRSC10850 | 1.77e5 | 1.48e5 | 2.09e5 | 2.25e5 | 10780 | inactive
AdamTS-A (ADAM metallopeptidase with thrombospondin type 1 motif A) | DRSC14992 | 1.21e5 | 1.31e5 | 82585 | 78780 | 11095 | inactive
AdamTS-A (ADAM metallopeptidase with thrombospondin type 1 motif A) | DRSC15966 | 2.80e5 | 2.89e5 | 2.21e5 | 2.20e5 | 17250 | inactive
Pi3K59F (Phosphatidylinositol 3-kinase 59F) | DRSC04640 | 1.70e5 | 2.17e5 | 1.85e5 | 1.86e5 | 13975 | inactive
CG18171 | DRSC08524 | 1.04e5 | 1.01e5 | 2.36e5 | 1.53e5 | 6105 | inactive
Hand | DRSC02656 | 1.16e5 | 1.18e5 | 62050 | 85675 | 16580 | inactive
wtrw (water witch) | DRSC14241 | 97245 | 1.08e5 | 64295 | 55640 | 6565 | inactive
wtrw (water witch) | DRSC15278 | 97220 | 86015 | 1.29e5 | 98225 | 7155 | inactive
GstD9 (Glutathione S transferase D9) | DRSC14185 | 83115 | 85910 | 86640 | 46940 | 6215 | inactive
CG42812 + CG42811 | DRSC15367 | 1.30e5 | 1.33e5 | 1.83e5 | 1.65e5 | 12665 | inactive
CG42812 + CG42811 | DRSC15368 | 1.52e5 | 1.52e5 | 1.89e5 | 1.67e5 | 12915 | inactive
Cth (Cystathionine gamma-lyase) | DRSC07422 | 89600 | 93340 | 1.88e5 | 2.26e5 | 8795 | inactive
Tnpo (Transportin) | DRSC11309 | 62015 | 59325 | 43840 | 15920 | 3840 | inactive
CG14321 | DRSC14800 | 1.87e5 | 1.43e5 | 2.05e5 | 2.14e5 | 12320 | inactive
mat (materazzi) | DRSC08376 | 2.06e5 | 1.58e5 | 2.77e5 | 2.68e5 | 8620 | inactive
WDR79 (WD repeat domain 79) | DRSC03159 | 53950 | 59050 | 68580 | 80245 | 4950 | inactive
Or19b + Or19a | DRSC22604 | – | – | – | – | – | inactive
gammaSnap2 (gamma Soluble NSF attachment protein 2) | DRSC15992 | 77000 | 75445 | 1.04e5 | 70880 | 3238 | inactive
CG12164 | DRSC06115 | 1.66e5 | 1.84e5 | 1.67e5 | 2.02e5 | 14575 | inactive
Vha44 (Vacuolar H[+] ATPase 44kD subunit) | DRSC07572 | 1.18e5 | 1.19e5 | 2.05e5 | 2.47e5 | 8420 | inactive
Vha44 (Vacuolar H[+] ATPase 44kD subunit) | DRSC07573 | 1.55e5 | 1.38e5 | 1.46e5 | 1.36e5 | 13320 | inactive
CG8997 | DRSC01900 | 1.55e5 | 1.50e5 | 1.53e5 | 1.65e5 | 11255 | inactive
CG13227 | DRSC06347 | 1.28e5 | 1.36e5 | 1.27e5 | 1.27e5 | 12870 | inactive
SLC22A (SLC22A family member) | DRSC11826 | 28460 | 28755 | 37910 | 28045 | 2405 | inactive
SLC22A (SLC22A family member) | DRSC11827 | 36065 | 33605 | 29250 | 30565 | 3160 | inactive
